“Also recorded” adds a separate entry of the source. At least one peptide structure holds a part that was inferred or is arguable (an end, a ring closure or a residue). Some entries repeat one wording, which the source may state once for all of them.
What was measured:
kappa opioid receptor = kappa opioid receptor (Homo sapiens, UniProt P41145); assay: Opioid receptor activation assay, DiscoveRx PathHunter Beta-Arrestin, kappa; assay type: cell-based; settings: no detectable mu or delta activity
Text: Opioid Receptor Activation Assay.
PathHunter™ Beta-Arrestin GPCR Functional Profiling and Screening cell lines that express the individual opioid receptors were obtained from DiscoveRx (Fremont, Calif.). These cells express the kappa (or mu or delta) opioid receptor fused to a proprietary β-galactosidase enzyme fragment and the […]-arrestin gene fused to an enzyme acceptor (the remaining fragment of β-galactosidase). Upon activation of the receptor, β-arrestin is recruited to the GPCR and the β-galactosidase is activated through enzyme complementation. Cells were grown using standard cell culture techniques and then plated at 30,000 cells/well in 90 μl in a 96 well white, clear bottom plate and incubated overnight. Dilutions were prepared in dilution buffer (HBBS, 20 mMHepes, 0.1% BSA) and 10 μl added per well. Plates were then incubated for 90 min at 37° C. in a water-saturated atmosphere. Plates were then allowed to come to room temp and DiscoveRx's proprietary developing agent added as recommended by the manufacturer. This agent contains a detergent, 6-O-β-galactopyranosyl-luciferen and luciferase. Plates were then incubated for 1 hr at room temperature before being read on a luminometer. Antagonist studies were performed in an identical manner except after the overnight incubation 10 μl media was removed and replaced with drug or naloxone at the indicated concentration. […] To calculate % maximal luminescence, background was subtracted from the experimental values and this was divided by maximal luminescence and multiplied by 100.
To confirm this, and to determine their relative activities, we assessed their efficiency using PathHunter™ Beta-Arrestin GPCR Functional Profiling and Screening cell lines from DiscoveRx (Fremont, Calif.) as described in the Materials and Methods section.

Sequences of proteins named here, by UniProt entry; tags and fusion partners are left off. A change or cut given only in a name is not applied to a line headed by its entry.
UniProt P41145: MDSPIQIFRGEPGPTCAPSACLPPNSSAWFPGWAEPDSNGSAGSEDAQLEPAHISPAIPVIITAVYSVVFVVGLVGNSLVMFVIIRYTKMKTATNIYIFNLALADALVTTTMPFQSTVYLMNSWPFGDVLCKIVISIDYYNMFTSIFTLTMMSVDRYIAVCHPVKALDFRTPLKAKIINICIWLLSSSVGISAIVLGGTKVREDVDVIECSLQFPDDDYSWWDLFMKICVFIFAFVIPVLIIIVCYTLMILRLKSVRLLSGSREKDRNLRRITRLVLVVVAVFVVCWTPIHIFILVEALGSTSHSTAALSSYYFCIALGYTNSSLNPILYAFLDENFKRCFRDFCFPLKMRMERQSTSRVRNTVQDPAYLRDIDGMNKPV
UniProt P41143, whole entry: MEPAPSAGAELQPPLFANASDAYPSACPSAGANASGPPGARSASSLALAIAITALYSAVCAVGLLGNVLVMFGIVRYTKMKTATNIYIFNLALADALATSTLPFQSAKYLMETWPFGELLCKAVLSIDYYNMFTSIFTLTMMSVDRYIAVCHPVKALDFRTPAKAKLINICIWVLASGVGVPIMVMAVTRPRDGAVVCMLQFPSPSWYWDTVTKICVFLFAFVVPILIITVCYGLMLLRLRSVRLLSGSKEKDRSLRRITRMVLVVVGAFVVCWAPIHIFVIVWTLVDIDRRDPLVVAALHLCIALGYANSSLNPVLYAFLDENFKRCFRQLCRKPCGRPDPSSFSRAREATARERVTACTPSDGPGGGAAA
UniProt P35372, whole entry: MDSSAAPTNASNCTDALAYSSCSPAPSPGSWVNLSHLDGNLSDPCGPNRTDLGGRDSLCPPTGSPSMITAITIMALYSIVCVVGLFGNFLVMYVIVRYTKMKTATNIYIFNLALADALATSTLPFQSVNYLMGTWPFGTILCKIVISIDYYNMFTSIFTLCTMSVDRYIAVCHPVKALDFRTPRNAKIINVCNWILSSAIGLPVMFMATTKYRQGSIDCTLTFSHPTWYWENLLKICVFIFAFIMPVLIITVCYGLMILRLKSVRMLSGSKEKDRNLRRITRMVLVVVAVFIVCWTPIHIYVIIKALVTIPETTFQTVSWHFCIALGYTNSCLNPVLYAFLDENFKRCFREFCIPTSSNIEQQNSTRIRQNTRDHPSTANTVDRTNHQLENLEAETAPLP

delta opioid receptor = delta opioid receptor (Homo sapiens, UniProt P41143); assay: Opioid receptor activation assay, DiscoveRx PathHunter Beta-Arrestin, delta; assay type: cell-based; settings: up to mM concentrations; DADLE 200 nM positive control
mu opioid receptor = mu opioid receptor (Homo sapiens, UniProt P35372); assay: Opioid receptor activation assay, DiscoveRx PathHunter Beta-Arrestin, mu; assay type: cell-based; settings: up to mM concentrations; Lys-dermorphin 200 nM positive control
[1] = tested on: peripheral pain (acetic acid-induced writhing); assay: Acetic acid-induced writhing model (Example 1); assay type: in vivo, rat (male Sprague-Dawley); settings: for effect on writhing (outward physical signs of peripheral pain) versus saline control: oral gavage, screening dose 20 mg/kg, 20 min before i.p. 3% acetic acid, Student's t-test p<0.05
Procedure: Acetic Acid-Induced Writhing Model.
This protocol is a well-established model of peripheral pain. Following oral or i.v. administration of compound, rats are rested for 20 min before i.p. injection with 2 ml/kg of 3% acetic acid. Animals are then rested an additional 10 min before being placed in a 10×10 inch chamber. A video of the rats is then recorded for next 20 min. The video is subsequently blindly scored by an investigator who examines each rat every 20 sec for the entire 20 min (60 individual observations). At each observation rats are scored on whether they are writhing or not. Writhing is defined as a constriction of the abdominal area, often with extension of the hind legs. At the end of the experiment the percent of the time the animal was writhing was calculated. The dose-response curves and EC50 values were generated using GraphPad Prism®.
As an initial biological screen the potential for oral availability of the 18 peptides in our library were evaluated in a well-established model of peripheral pain, the acetic acid-induced writhing assay. Rats were administered the various compounds by oral gavage at a screening dose of 20 mg/kg 20 min before i.p. injection with 2 ml/kg of 3% acetic acid. 10 min later animals were assessed for writhing as indicated in the methods section. […] Thus, several of the Arg modifications can impart CR665 with the ability to cross the gut barrier. Compounds 3, 7, 9, 11 and 17 were selected for further analysis.

[2] = tested on: peripheral pain (acetic acid-induced writhing); assay: Acetic acid-induced writhing model (Example 2); assay type: in vivo, rat
[3] = tested on: central pain (acute thermal stimuli); assay: Hotplate model (Example 1); assay type: in vivo, rat (male Sprague-Dawley); settings: for peripheral selectivity (peripheral versus central): 30 mg/kg taken as minimum EC50 in CNS-mediated pain versus i.v. writhing EC50
Procedure: The hotplate model evaluates central pain attenuation in a rodent after applying an acute thermal stimuli. The rat is treated with compound and assessed over time on a hotplate analgesia meter (Columbus Instruments, Columbus, Ohio), essentially a flat surface maintained at 53.0+/−0.2° C. The time until the rat lifts, nibbles or shakes one of its hind paws is recorded, which is known as the response latency. Animals remain on the hotplate no longer than 30 sec to avoid tissue damage. Experiments are scored as the percent of maximal possible effect (% MPE) calculated using the following equation: % MPE=[(post-drug latency−pre-drug latency)/(cut-off pre-drug latency)]×100%. The dose response curves and EC50 values were generated using GraphPad Prism®.
As discussed, central availability of a kappa agonist can lead to undesirable side effects. To assess the peripheral to central selectivity of compound 9 an i.v. dose response of this drug was performed in both a model of peripheral pain (A. the writhing assay) and central pain (B. the hotplate assay). The ratio of EC50s for each of these assays can then be used to determine the peripheral selectivity of the drug.

[4] = tested on: central pain (acute thermal stimuli); assay: Hot plate model (Example 2); assay type: in vivo, rat; settings: JT compounds 20 mg/kg oral; morphine 10 mg/kg i.p.; listed as JT09
Procedure: The hotplate model evaluates central pain attenuation in a rodent after applying an acute thermal stimuli. Experimental rats were orally gavaged with lead compounds JT07 or JT09 (20 mg/kg) and rested for 20 min prior to being placed on the hotplate. Control rats received i.p. injections of morphine (10 mg/kg) and rested for 20 min prior to be being placed on the hotplate. Rats were then assessed over time on a hotplate analgesia meter (Columbus Instruments, Columbus, Ohio), essentially a flat surface maintained at 53.0+/−0.2° C. The time until the rat lifted, nibbled, or shook one of its hind paws was recorded, which is known as the response latency. Animals remained on the hotplate no longer that 30 sec to avoid tissue damage. Experiments were scored as the percent of maximal possible effect (% MPE) calculated using the following equation: % MPE=[(post-drug latency−pre-drug latency)/(cut-off pre-drug latency)]×100%. The dose response curves and EC50 values were generated using GraphPad Prism.
As an initial screen for analgesic activity, JT07 and JT09 were evaluated in the hotplate analgesic model using a standard oral dose of 20 mg/kg. Percent maximum possible effect was analyzed for each compound and compared to morphine (10 mg/kg, i.p.).

SMILES | kappa specificity over mu or delta (minimal estimate) (kappa opioid receptor) | activation of delta opioid receptor (delta opioid receptor) | activation of mu opioid receptor (mu opioid receptor) | effect on writhing (outward physical signs of peripheral pain) versus saline control [1] | analgesic potency/activity in writhing compared to morphine ([2]; 20 mg/kg p.o. versus morphine 10 mg/kg i.p., listed as JT09) | effect on outward physical signs of peripheral pain (writhing) ([2]; oral gavage 20 mg/kg) | percentage of time writhing versus saline ([2]; oral gavage 20 mg/kg, Student's t-test p<0.05) | peripheral selectivity (peripheral versus central) [3] [fold] | peripheral selectivity (peripheral versus central) ([3]; listed as JT09) | activity in hotplate assay ([3]; i.v., 30 mg/kg (highest dose tested), 30 mg/kg) | analgesic activity in hotplate model (% maximum possible effect) [4] | 95% confidence level of EC50, i.v. dose response in writhing assay ([1]; i.v.) [mg/kg] | ED90 (analgesic) ([1]; oral) [mg/kg]
CCCC[C@@H](NC(=O)[C@@H](Cc1ccccc1)NC(=O)[C@H](N)Cc1ccccc1)C(=O)N[C@H](CCC[N+](C)(C)C)C(=O)NCc1ccncc1 [Compound 17] | > 11,000 fold | No activation was detected | No activation was detected | significantly block | – | – | – | – | – | – | – | – | –
CCCC[C@@H](NC(=O)[C@@H](Cc1ccccc1)NC(=O)[C@H](N)Cc1ccccc1)C(=O)N[C@H](CCCCN(C)C)C(=O)NCc1ccncc1 [Compound 9] | > 33,400 fold | No activation was detected | No activation was detected | significantly block | indistinguishable in potency; also recorded: comparable analgesic activity | significantly block | statistically significantly different from saline | > 900 | at least 900 fold | no activity could be detected; also recorded: No change from saline control was detected | did not show analgesic activity; also recorded: no analgesic effects | 0.0095 to 0.1069 | 30
CCCC[C@@H](NC(=O)[C@@H](Cc1ccccc1)NC(=O)[C@H](N)Cc1ccccc1)C(=O)N[C@H](CCCCNCc1ccccc1)C(=O)NCc1ccncc1 [Compound 11] | – | No activation was detected | No activation was detected | significantly block | – | – | – | – | – | – | – | – | –
CCCC[C@@H](NC(=O)[C@@H](Cc1ccccc1)NC(=O)[C@H](N)Cc1ccccc1)C(=O)N[C@H](CCCCNC1CCCCC1)C(=O)NCc1ccncc1 [Compound 7] | – | No activation was detected | No activation was detected | significantly block | – | – | – | – | – | – | – | – | –
CCCCNC(=N)NCCC[C@@H](NC(=O)[C@@H](CCCC)NC(=O)[C@@H](Cc1ccccc1)NC(=O)[C@H](N)Cc1ccccc1)C(=O)NCc1ccncc1 [Compound 3] | > 200,000 fold | No activation was detected | No activation was detected | significantly block | – | – | – | – | – | – | – | – | –

From patent publication US20200316159A1, “SUSTAINED RELEASE COMPOSITIONS OF KAPPA-OPIOID RECEPTOR AGONIST” (JT PHARMACEUTICALS, INC., priority 2016, published 2020)
